Measured values published in paper PMC10798966.
No constants are given. Whether binding was seen depends on the method and setting. In cells and extracts the contact can be indirect. A result given as binding can be weak or reduced; the word gives no strength.

Amino acid sequences for entries named in this document (tags omitted). A change or cut given only in a name is not applied to a line headed by its entry.
UniProt P24161: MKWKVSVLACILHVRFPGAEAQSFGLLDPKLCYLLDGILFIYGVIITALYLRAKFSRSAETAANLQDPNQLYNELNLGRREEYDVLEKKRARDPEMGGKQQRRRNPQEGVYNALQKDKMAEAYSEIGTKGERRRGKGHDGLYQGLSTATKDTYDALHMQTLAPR
UniProt P16297: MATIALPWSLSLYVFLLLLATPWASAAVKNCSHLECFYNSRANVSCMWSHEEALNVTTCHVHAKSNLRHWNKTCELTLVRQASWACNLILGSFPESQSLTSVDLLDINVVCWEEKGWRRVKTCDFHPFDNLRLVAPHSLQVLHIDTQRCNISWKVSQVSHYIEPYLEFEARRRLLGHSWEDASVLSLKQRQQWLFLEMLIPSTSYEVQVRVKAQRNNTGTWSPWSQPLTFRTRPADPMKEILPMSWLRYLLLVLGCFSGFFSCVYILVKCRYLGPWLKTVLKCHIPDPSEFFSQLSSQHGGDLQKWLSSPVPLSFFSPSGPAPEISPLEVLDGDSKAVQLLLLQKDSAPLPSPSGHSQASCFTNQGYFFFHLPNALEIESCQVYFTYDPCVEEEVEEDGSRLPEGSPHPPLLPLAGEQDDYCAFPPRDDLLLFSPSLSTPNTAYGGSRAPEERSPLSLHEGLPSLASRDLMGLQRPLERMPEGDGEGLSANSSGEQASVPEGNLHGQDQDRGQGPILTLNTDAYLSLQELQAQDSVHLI
UniProt Q8BHD8: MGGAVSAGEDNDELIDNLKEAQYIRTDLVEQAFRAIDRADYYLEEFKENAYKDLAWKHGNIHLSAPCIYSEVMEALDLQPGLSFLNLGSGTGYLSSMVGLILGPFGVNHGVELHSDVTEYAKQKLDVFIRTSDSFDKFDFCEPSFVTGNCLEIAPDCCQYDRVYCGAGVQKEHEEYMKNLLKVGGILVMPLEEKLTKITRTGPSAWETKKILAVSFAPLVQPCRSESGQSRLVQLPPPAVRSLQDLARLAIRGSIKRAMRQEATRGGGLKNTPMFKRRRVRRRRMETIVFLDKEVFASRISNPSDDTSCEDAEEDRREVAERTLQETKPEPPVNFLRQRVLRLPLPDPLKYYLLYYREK

How the values were obtained:
[1] = biological target: GFP-CD247 (intracellular domain of CD247) (UniProt P24161); experiment: co-IP; HEK293T cells transfected with the indicated constructs for 24 h, MG132 (20 µM) 4 h before collection; lysis in 50 mM HEPES, 150 mM NaCl, 1% Triton X-100, 0.5% NP40; IP with anti-HA, anti-Myc or anti-GFP, western blotting
[2] = biological target: GFP-IL2RB (intracellular domain of IL2RB) (UniProt P16297); experiment: as above

HA-PCMTD2 (from UniProt Q8BHD8 1-359)
binding [1]: binds
binding [2]: binds
